Binding data for two substances are collected here from publication PMC6317813.

Protein sequences, listed by entry. Tags and fused reporters are not part of them. Lines headed by an entry give the natural chain unless they say otherwise; changes in a name come on top. Chains listed by the source or under a name are the forms on record and can include a tag or linker.
UniProt P37238: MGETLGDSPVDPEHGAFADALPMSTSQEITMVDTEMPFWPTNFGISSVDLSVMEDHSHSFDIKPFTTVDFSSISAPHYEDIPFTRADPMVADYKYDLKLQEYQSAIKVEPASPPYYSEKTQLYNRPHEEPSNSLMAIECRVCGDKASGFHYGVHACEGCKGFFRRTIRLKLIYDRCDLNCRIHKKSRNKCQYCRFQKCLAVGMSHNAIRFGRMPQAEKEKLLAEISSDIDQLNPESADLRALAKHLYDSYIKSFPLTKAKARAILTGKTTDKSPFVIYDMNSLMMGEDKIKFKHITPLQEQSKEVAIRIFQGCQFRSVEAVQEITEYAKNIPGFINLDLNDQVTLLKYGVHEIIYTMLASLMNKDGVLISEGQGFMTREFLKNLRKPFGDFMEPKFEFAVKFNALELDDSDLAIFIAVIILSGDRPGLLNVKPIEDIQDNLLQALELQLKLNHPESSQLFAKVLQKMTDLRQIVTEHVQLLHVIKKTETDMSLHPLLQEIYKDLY
UniProt Q9CUN6: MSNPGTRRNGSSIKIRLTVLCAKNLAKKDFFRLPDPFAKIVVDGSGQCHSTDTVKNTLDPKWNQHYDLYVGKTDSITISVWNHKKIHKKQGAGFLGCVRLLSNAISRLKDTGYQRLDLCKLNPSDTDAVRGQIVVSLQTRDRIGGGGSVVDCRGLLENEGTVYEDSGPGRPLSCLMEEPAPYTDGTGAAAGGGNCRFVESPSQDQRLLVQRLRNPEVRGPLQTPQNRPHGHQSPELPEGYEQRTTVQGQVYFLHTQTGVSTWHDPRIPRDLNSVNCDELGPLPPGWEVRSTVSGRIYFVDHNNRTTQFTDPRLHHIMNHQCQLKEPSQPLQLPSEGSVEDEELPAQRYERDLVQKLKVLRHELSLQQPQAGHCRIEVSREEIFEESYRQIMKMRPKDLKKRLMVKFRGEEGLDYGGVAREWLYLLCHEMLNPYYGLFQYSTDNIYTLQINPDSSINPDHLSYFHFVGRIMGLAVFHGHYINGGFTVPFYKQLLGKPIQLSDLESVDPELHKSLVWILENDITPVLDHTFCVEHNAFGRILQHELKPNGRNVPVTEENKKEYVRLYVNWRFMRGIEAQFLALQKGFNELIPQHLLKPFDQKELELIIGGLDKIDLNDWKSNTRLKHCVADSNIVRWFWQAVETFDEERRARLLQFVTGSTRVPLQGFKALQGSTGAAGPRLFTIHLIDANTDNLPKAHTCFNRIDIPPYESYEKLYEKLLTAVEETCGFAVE
Myc-tagged Smurf1 (Q9HCE7-2, form named): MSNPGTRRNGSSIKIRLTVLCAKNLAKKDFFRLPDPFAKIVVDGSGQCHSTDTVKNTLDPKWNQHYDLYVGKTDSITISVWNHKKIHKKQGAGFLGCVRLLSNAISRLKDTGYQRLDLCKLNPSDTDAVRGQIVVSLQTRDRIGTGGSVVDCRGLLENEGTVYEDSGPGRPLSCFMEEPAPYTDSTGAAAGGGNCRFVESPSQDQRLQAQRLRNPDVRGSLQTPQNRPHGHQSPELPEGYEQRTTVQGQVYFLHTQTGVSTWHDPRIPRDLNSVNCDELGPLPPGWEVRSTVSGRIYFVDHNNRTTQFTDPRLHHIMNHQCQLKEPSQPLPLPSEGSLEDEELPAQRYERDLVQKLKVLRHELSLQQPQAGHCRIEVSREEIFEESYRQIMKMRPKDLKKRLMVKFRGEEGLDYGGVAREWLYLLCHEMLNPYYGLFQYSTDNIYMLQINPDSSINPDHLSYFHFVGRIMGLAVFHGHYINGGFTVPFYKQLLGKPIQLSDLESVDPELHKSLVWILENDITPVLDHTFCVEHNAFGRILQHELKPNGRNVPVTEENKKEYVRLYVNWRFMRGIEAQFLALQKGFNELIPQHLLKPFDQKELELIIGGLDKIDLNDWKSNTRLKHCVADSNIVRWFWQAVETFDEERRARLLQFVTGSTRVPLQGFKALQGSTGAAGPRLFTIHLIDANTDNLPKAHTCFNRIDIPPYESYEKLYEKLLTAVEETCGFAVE

Experiment [1] concerns the target peroxisome proliferator-activated receptor γ (PPARγ), endogenous in AML12 cells (mouse (endogenous in AML12)) (UniProt P37238). Description: co-IP; endogenous Smurf1 and endogenous PPARγ in AML12 cells; western blot.
The next experiment has as its target Flag-tagged PPARγ2 (UniProt P37238). As to the kind of experiment: co-IP; AML12 cells transiently transfected with Myc-Smurf1 and Flag-PPARγ2 or its ΔPY mutant; whole cell lysates immunoprecipitated with Flag-M2 beads, western blot.

No constants are given. Whether binding was seen depends on the method and setting. Binding seen in cells or lysates may run through a third protein. Some results given as binding are weak or reduced against the parent protein; the word gives no strength.

In the case of “Smad ubiquitin regulatory factor 1 (Smurf1), endogenous in AML12 cells (from UniProt Q9CUN6 1-731) (enzyme)”, the binding entry in experiment [1] is given as “binds”.

Take “Myc-tagged Smurf1 (from UniProt Q9HCE7-2 1-731) (enzyme)”: the binding entry in the experiment with Flag-tagged PPARγ2 is reported as “binds”.
